Experimental data published in PubChem BioAssay AID1671190 (National Center for Advancing Translational Sciences (NCATS), 2021).
About 6,100 (1.1%) of roughly 580,000 compounds were called active. Inconclusive results, whose numbers are uncertain, are shown with a selection of clear calls. The call rests on the fitted dose curve; in most records, active means well fitted inhibition curve with a large enough effect; inconclusive means small, poorly fitted or top-dose-only effect, or another doubt; inactive means no such curve, though single readings can be large or run the other way. A potency beside an inconclusive call is a rough fit, not a confirmed value.

Chains of the proteins cited; added tags and fusions are not shown. Lines headed by an entry give the natural chain unless they say otherwise; changes in a name come on top.
UniProt P18054: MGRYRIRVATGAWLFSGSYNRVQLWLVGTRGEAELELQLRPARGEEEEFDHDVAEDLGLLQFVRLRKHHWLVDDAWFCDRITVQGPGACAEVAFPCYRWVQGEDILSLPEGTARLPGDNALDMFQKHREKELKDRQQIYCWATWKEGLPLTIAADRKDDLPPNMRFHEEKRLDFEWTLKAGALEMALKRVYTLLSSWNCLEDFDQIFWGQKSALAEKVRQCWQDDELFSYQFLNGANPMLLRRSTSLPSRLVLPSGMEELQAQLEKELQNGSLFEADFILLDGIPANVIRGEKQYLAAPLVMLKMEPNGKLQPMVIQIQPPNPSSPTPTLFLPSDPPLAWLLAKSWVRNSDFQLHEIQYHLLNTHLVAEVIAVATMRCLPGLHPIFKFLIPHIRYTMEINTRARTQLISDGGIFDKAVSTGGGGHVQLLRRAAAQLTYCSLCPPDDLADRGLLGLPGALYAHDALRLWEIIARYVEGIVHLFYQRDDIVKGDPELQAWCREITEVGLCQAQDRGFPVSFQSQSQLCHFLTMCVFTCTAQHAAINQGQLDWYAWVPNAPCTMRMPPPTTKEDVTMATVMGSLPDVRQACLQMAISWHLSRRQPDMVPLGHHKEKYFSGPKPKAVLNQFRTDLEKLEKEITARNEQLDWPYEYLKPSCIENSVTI

The molecules below were run against Polyunsaturated fatty acid lipoxygenase ALOX12 (Homo sapiens) (UniProt P18054) (assay: Primary qHTS assay for inhibitors of human arachidonate 12S-lipoxygenase (ALOX12): Round 2). Settings: purified 12hLO, xylenol orange hydroperoxide absorbance; series mostly up to 108 µM.
Summary of the method: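 Purified human 12hLO at 150 nM in 25 mM Hepes, 0.01% Triton X-100, pH 7.0, preincubated 15 min at room temperature with compound. Reaction started with 40 uM arachidonic acid, 30 min at room temperature. Hydroperoxide measured by Fe-xylenol orange, 573/405 nm absorbance ratio.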
Potency means the concentration at half of the fitted maximal effect.

Question: With CC(C)NC(=O)CN(C)C(=O)CCl as the molecule, how does the Potency read?
Answer: The Potency was inconclusive: 44.7 µM [inhibitor, partial curve, poor fit].

Question: Which Potency does the source give for CC(=O)OC1C=CCC2C(=O)c3cccc(O)c3C(O)C12 (centres undefined) here?
Answer: Its Potency is inconclusive: 31.6 µM [inhibitor, partial curve, poor fit].

Question: CCOc1ccc(C(=O)Oc2cc(C)[nH]c(=O)c2[N+](=O)[O-])cc1OCC was tested. Which Potency did it give?
Answer: The Potency was inconclusive: 11.2 µM [inhibitor, full curve, poor fit].

Question: For COc1ccc(C2C3=C(CCCC3=O)N(CC(=O)O)C3=C2C(=O)CCC3)cc1, which Potency is on record?
Answer: Its Potency is active: 10 µM.

Question: How did the Potency turn out when O=S(=O)(c1ccc(NC(=S)NCc2ccncc2)cc1)N1CCCCC1 was run?
Answer: Its Potency is inconclusive: 112 µM [inhibitor, partial curve, poor fit].

Question: Which Potency does the source give for COc1ccc(CCn2cc3c(c2-c2ccc(Br)cc2)c(=O)n(C)c(=O)n3C)cc1OC here?
Answer: Its Potency is inconclusive: 70.8 µM [inhibitor, partial curve, poor fit].

Question: For Cc1ccccc1N1CC(c2nc3ccccc3n2CCC2CCCCC2)CC1=O (centres undefined), which Potency is on record?
Answer: The Potency was inconclusive: 126 µM [inhibitor, partial curve, poor fit].

Question: With CCc1ccc(N(CC)C(=O)C(=O)c2c[nH]c3ccccc23)cc1 as the molecule, how does the Potency read?
Answer: Its Potency is inconclusive: 31.6 µM [inhibitor, partial curve, poor fit].

Question: With O=C(Nc1cccnc1)c1ccc(-c2cc(Cl)ccc2Cl)o1 as the molecule, how does the Potency read?
Answer: Its Potency is inconclusive: 141 µM [inhibitor, partial curve, poor fit].

Question: For O=C(NCCc1ccccc1Cl)c1ccc(Cn2c(=O)c3cccn3c3cccnc32)cc1, which Potency is on record?
Answer: Its Potency is inconclusive: 50.1 µM [inhibitor, partial curve, poor fit].

Question: O=C1CC(c2cc(Br)ccc2F)c2cc3c(cc2N1)CCC3 (centres undefined) was tested. Which Potency did it give?
Answer: The Potency was “inactive”.

Question: With Cc1[nH]c2ccccc2c1C1c2ccccc2C(=O)N1CCc1ccccc1 (centres undefined) as the molecule, how does the Potency read?
Answer: The Potency was “inactive”.

Question: Cn1c(=O)[nH]c(=O)c2c1nc(N1CCCCC1)n2C/C=N/Nc1ccc(C(=O)O)cc1 was tested. Which Potency did it give?
Answer: The Potency was “inactive”.

Question: Which Potency does the source give for COc1ccc(C(=O)C/C(=C\C(=O)c2ccc(C)cc2)c2ccccc2)cc1 here?
Answer: Its Potency is “inactive”.

Question: For O=C(Nc1ccccc1Cc1ccccc1)c1oc2ccccc2c1COc1ccccc1, which Potency is on record?
Answer: Its Potency is “inactive”.

Question: CN(C)c1ccc(C(CNS(=O)(=O)c2ccc3ccccc3c2)N2CCOCC2)cc1 (centres undefined) was tested. Which Potency did it give?
Answer: The Potency was inconclusive: 0.178 µM [inhibitor, full curve, poor fit].

Question: CC1(c2ccccc2)NC(=O)N(NC(=O)COC(=O)c2cc(Br)ccc2O)C1=O (centres undefined) was tested. Which Potency did it give?
Answer: Its Potency is inconclusive: 8.91 µM [inhibitor, partial curve, poor fit].

Question: Which Potency does the source give for CC(=O)Nc1ccc(NC(=O)C2CC(=O)N(Cc3ccco3)C2)cc1 (centres undefined) here?
Answer: Its Potency is inconclusive: 100 µM [inhibitor, single point].

Question: CCCCOC(=O)c1ccc(NC(=O)COC(=O)CN2C(=O)NC3(CCCC3)C2=O)cc1 was tested. Which Potency did it give?
Answer: Its Potency is “inactive”.

Question: With Cc1cccc(-n2c(-c3ccncc3)n[nH]c2=S)c1 as the molecule, how does the Potency read?
Answer: The Potency was inconclusive: 31.6 µM [inhibitor, partial curve, poor fit].

Question: With COc1ccc2c(c1)Cc1sc(NC(=O)c3cccs3)nc1-2 as the molecule, how does the Potency read?
Answer: The Potency was “inactive”.

Question: With C=C(C)C(=O)Nc1cccc(C2=NOC3(C2)C[C@@H](C(N)=O)N(C(=O)CCCCC)C3)c1 (some centres undefined) as the molecule, how does the Potency read?
Answer: Its Potency is “inactive”.

Question: Which Potency does the source give for COc1cc(-c2cc(OC)c3c(C)oc(C)c3c(=O)c2)ccc1OC(=O)c1ccccc1Cl here?
Answer: Its Potency is inconclusive: 56.2 µM [inhibitor, partial curve, poor fit].

Question: Which Potency does the source give for CCCN(CC1CC1)C(=O)C1CCN(C(=O)N2CC3CC(C2)[C@H]2CCCC(=O)N2C3)CC1 (some centres undefined) here?
Answer: The Potency was “inactive”.

Question: Cc1ccc(-c2cc3c(=O)n(CCNC(=O)c4ccc(N(C)C)cc4)ccn3n2)c(C)c1 was tested. Which Potency did it give?
Answer: Its Potency is “inactive”.

Question: CC1CN(CCOc2ccc(Cl)c(Cl)c2)CC(C)O1 (centres undefined) was tested. Which Potency did it give?
Answer: Its Potency is active: 0.447 µM.

Question: Which Potency does the source give for CCc1noc(-c2cn(C3CCCN(C(=O)COc4ccc(F)cc4)C3)nn2)n1 (centres undefined) here?
Answer: Its Potency is “inactive”.

Question: With CC(C)N(C(=O)c1ccc(I)cc1)C(C)C as the molecule, how does the Potency read?
Answer: Its Potency is “inactive”.

Question: For CCOC(=O)C1=C(CN2CCC(C)CC2)NC(=O)NC1c1ccc(F)cc1 (centres undefined), which Potency is on record?
Answer: Its Potency is inconclusive: 50.1 µM [inhibitor, partial curve, poor fit].

Question: How did the Potency turn out when COCCCNCCOc1cc(C(C)C)ccc1C was run?
Answer: Its Potency is inconclusive: 2.24 µM [inhibitor, full curve, poor fit].

Question: How did the Potency turn out when CC1CC(=O)Nc2ccccc2N1C(=O)CSc1ncnc2sccc12 (centres undefined) was run?
Answer: The Potency was “inactive”.

Question: For Clc1ccc(-c2csc(N/N=C/c3ccco3)n2)cc1, which Potency is on record?
Answer: The Potency was inconclusive: 31.6 µM [inhibitor, partial curve, poor fit].

Question: Which Potency does the source give for Cc1ccc(-n2c(C)cc3c2CC(C)(C)CC3=O)cc1C here?
Answer: Its Potency is inconclusive: 112 µM [inhibitor, partial curve, poor fit].

Question: Cc1cccc(Oc2nc3c(C)cccn3c(=O)c2/C=C(\C#N)c2nc3ccccc3[nH]2)c1 was tested. Which Potency did it give?
Answer: The Potency was “inactive”.

Question: Which Potency does the source give for N#Cc1ccccc1Sc1ccccc1C(=O)NCC(c1ccco1)N1CCCC1 (centres undefined) here?
Answer: The Potency was inconclusive: 0.251 µM [inhibitor, full curve, poor fit].

Question: Which Potency does the source give for CN(Cc1ccc(C(F)(F)F)cc1)C(=O)C1CCN(C(=O)/C=C/c2ccccc2)CC1 here?
Answer: The Potency was inconclusive: 3.98 µM [inhibitor, full curve, poor fit].

Question: How did the Potency turn out when Cc1nnc(NC(=O)CSc2ccc(-c3ccco3)nn2)s1 was run?
Answer: The Potency was inconclusive: 25.1 µM [inhibitor, partial curve, poor fit].

Question: O=C(c1ccc(N2C(=O)c3ccccc3C2=O)cc1)N1CCCCC1 was tested. Which Potency did it give?
Answer: The Potency was “inactive”.

Question: For CNC(=O)[C@@H](c1ccc(Cl)cc1)N1CCC[C@H]1C(=O)NC(C)C, which Potency is on record?
Answer: The Potency was inconclusive: 11.2 µM [inhibitor, full curve, poor fit].

Question: Which Potency does the source give for COc1ccc(S(=O)(=O)N2CCOCC2)cc1NC(=O)c1cc2c(s1)CCCC2 here?
Answer: The Potency was “inactive”.

Question: For COc1ccc(/C=N/Nc2nc3ccccc3[nH]2)cc1OC, which Potency is on record?
Answer: Its Potency is “inactive”.

Question: With O=C(NC(=S)Nc1ccc(Cl)cn1)c1cc([N+](=O)[O-])ccc1N1CCOCC1 as the molecule, how does the Potency read?
Answer: The Potency was inconclusive: 3.98 µM [inhibitor, full curve, poor fit].

Question: How did the Potency turn out when CC(C)(C)c1ccc(C(=O)Nc2ccc(N3CCOCC3)cc2)cc1 was run?
Answer: Its Potency is inconclusive: 0.794 µM [inhibitor, full curve, poor fit].
